The list is a part of this screen's results and no random one: it is rich in T/C values a quarter to a half above the control, in often repeated tests (any T/C) and in doses without a T/C. Further doses and runs are listed elsewhere. T/C gives the treated animals as a percentage of the vehicle group. Some entries give survivors of the animals treated and no T/C: the source files T/C as zero there, which appears to mark a toxic dose or a test without result, not a measured value. Some survivor counts are full or nearly so, which does not show that the dose was tolerated: survival well below the control is almost never listed, so the zero probably covers shortened survival too. Survivors were counted at the toxicity check, usually on the fifth day, unless a day is given; later deaths do not show. Schedule codes are those of the source, taken here to give the interval after Q, in days (D) or hours (H), and the number of doses after X. Some entries hold several experiments; the values are given in rising order. For survival time, this PubChem deposit counts one and a half times the control or more as active, and values a quarter to a half above the control carry no call in these data; other NCI protocols may use other cut-offs. Some T/C values are followed by the survivors on the day toxicity was checked, most often the fifth; where none is given, no animal had died by that day.
Tested on: P388 leukemia ip, CD2F1 mice, survival T/C
Assay: NCI In Vivo Anticancer Drug Screen. Data for tumor model P388 Leukemia (intraperitoneal) in CD2F1 (CDF1) mice
Settings: T/C endpoint: median survival time, higher T/C = longer survival
[1] = dose: 50.0 mg/kg/injection, schedule: Q04DX003 (ip), vehicle: saline
[2] = dose: 200.0 mg/kg/injection, schedule: Q01DX005 (ip), vehicle: saline with Tween-80
[3] = dose: 200.0 mg/kg/injection, schedule: Q01DX009 (ip), vehicle: saline

Q: Which results are given for CC[C@](O)(C(=O)O)c1cc2n(c(=O)c1CO)Cc1cc3ccccc3nc1-2?
A: T/C (dose: 1.0 mg/kg/injection, schedule: Q01DX009 (ip), vehicle: saline with Tween-80): 127 % of control; T/C (dose: 1.0 mg/kg/injection, schedule: Q01DX009 (ip), vehicle: water): 137 % of control; T/C (dose: 2.0 mg/kg/injection, schedule: Q04DX003 (ip), vehicle: saline): 125 % of control; T/C (dose: 2.5 mg/kg/injection, schedule: Q04DX003 (ip), vehicle: water): 126 % of control; T/C (dose: 3.13 mg/kg/injection, schedule: Q04DX003 (ip), vehicle: other): 126 and 136 % of control; T/C (dose: 4.0 mg/kg/injection, schedule: Q04DX003 (ip), vehicle: saline, evaluated on day 5): 100 and 104 % of control; T/C (dose: 4.0 mg/kg/injection, schedule: Q04DX003 (ip), vehicle: saline, evaluated on day 30): 100 and 104 % of control; T/C (dose: 4.0 mg/kg/injection, schedule: Q04DX003 (ip), vehicle: saline, evaluated on day 35): 124 % of control; T/C (dose: 5.0 mg/kg/injection, schedule: Q04DX003 (ip), vehicle: water): 140 % of control; T/C (dose: 6.48 mg/kg/injection, schedule: Q04DX003 (ip), vehicle: saline): 119, 127, 135, 154 % of control; T/C (dose: 7.78 mg/kg/injection, schedule: Q04DX003 (ip), vehicle: saline): 146 % of control; survivor count (dose: 8.0 mg/kg/injection, schedule: Q01DX009 (ip), vehicle: saline sonified): 6 of 6; T/C (dose: 8.0 mg/kg/injection, schedule: Q04DX003 (ip), vehicle: saline, evaluated on day 5): 94, 108, 128 % of control; T/C (dose: 8.0 mg/kg/injection, schedule: Q04DX003 (ip), vehicle: saline, evaluated on day 30): 94 and 108 % of control; T/C (dose: 8.0 mg/kg/injection, schedule: Q04DX003 (ip), vehicle: saline, evaluated on day 35): 150 % of control; T/C (dose: 8.0 mg/kg/injection, schedule: Q04DX003 (ip), vehicle: saline, evaluated on day 60): 128 % of control; T/C (dose: 9.72 mg/kg/injection, schedule: Q04DX002 (ip), vehicle: saline): 138 % of control; T/C (dose: 10.0 mg/kg/injection, schedule: Q04DX003 (ip), vehicle: water): 141 % of control; T/C (dose: 10.8 mg/kg/injection, schedule: Q04DX003 (ip), vehicle: saline): 136, 150, 152, 157 % of control; T/C (dose: 12.5 mg/kg/injection, schedule: Q04DX003 (ip), vehicle: water): 144 % of control; survivor count (dose: 16.0 mg/kg/injection, schedule: Q01DX009 (ip), vehicle: saline sonified): 4 of 6; T/C (dose: 16.0 mg/kg/injection, schedule: Q04DX003 (ip), vehicle: saline, evaluated on day 5): 81, 147, 159 % of control; T/C (dose: 16.0 mg/kg/injection, schedule: Q04DX003 (ip), vehicle: saline, evaluated on day 30): 147 % of control; T/C (dose: 16.0 mg/kg/injection, schedule: Q04DX003 (ip), vehicle: saline, evaluated on day 35): 187 % of control; T/C (dose: 16.0 mg/kg/injection, schedule: Q04DX003 (ip), vehicle: saline, evaluated on day 60): 159 % of control; survivor count (dose: 16.0 mg/kg/injection, schedule: Q04DX003 (ip), vehicle: saline): 10 of 10; T/C (dose: 18.0 mg/kg/injection, schedule: Q04DX003 (ip), vehicle: saline): 162, 179, 185, 192 % of control; T/C (dose: 30.0 mg/kg/injection, schedule: Q04DX003 (ip), vehicle: saline): 105 [7 of 8 alive], 195, 207, 212 % of control; T/C (dose: 32.0 mg/kg/injection, schedule: Q04DX003 (ip), vehicle: saline, evaluated on day 5): 77, 207, 213 % of control; T/C (dose: 32.0 mg/kg/injection, schedule: Q04DX003 (ip), vehicle: saline, evaluated on day 30): 207 % of control; T/C (dose: 32.0 mg/kg/injection, schedule: Q04DX003 (ip), vehicle: saline, evaluated on day 35): 99 % of control [5 of 6 alive]; T/C (dose: 32.0 mg/kg/injection, schedule: Q04DX003 (ip), vehicle: saline, evaluated on day 60): 213 % of control; survivor count (dose: 32.0 mg/kg/injection, schedule: Q04DX003 (ip), vehicle: saline): 10 of 10; survivor count (dose: 50.0 mg/kg/injection, schedule: Q04DX003 (ip), vehicle: other): 3 of 6 and 6 of 6; T/C [1]: 95, 136, 163 % of control; survivor count [1]: 6 of 8; survivor count (dose: 50.0 mg/kg/injection, schedule: Q04DX003 (ip), vehicle: water): 2 of 6; T/C (dose: 64.0 mg/kg/injection, schedule: Q04DX003 (ip), vehicle: saline, evaluated on day 5): 41, 103, 208 % of control; T/C (dose: 64.0 mg/kg/injection, schedule: Q04DX003 (ip), vehicle: saline, evaluated on day 30): 103 % of control [9 of 10 alive]; T/C (dose: 64.0 mg/kg/injection, schedule: Q04DX003 (ip), vehicle: saline, evaluated on day 60): 208 % of control [9 of 10 alive]; survivor count (dose: 64.0 mg/kg/injection, schedule: Q04DX003 (ip), vehicle: saline): 2 of 6 and 4 of 10; survivor count (dose: 128.0 mg/kg/injection, schedule: Q04DX003 (ip), vehicle: saline): 9 of 10

Q: C/C=C/[Se]c1ccccc1 was tested. Which survivor count (dose: 25.0 mg/kg/injection, schedule: Q01DX009 (ip), vehicle: saline with Tween-80) did it give?
A: Its survivor count is 6 of 6.

Q: And the T/C (dose: 50.0 mg/kg/injection, schedule: Q01DX009 (ip), vehicle: saline with Tween-80, evaluated on day 20)?
A: The T/C was 99 % of control.

Q: And the T/C (dose: 50.0 mg/kg/injection, schedule: Q01DX009 (ip), vehicle: saline with Tween-80, evaluated on day 30)?
A: Its T/C is 103, 116, 128 % of control.

Q: And the survivor count (dose: 200.0 mg/kg/injection, schedule: Q01DX009 (ip), vehicle: saline with Tween-80)?
A: Its survivor count is 0 of 6, 1 of 6, 4 of 6.

Q: What does the source list for CCS(=O)(=O)Nc1cccc(Nc2c3cccc(C)c3nc3c(C)cccc23)c1OC?
A: T/C (dose: 1.4 mg/kg/injection, schedule: Q01DX009 (ip), vehicle: saline with Tween-80): 126 % of control; T/C (dose: 2.8 mg/kg/injection, schedule: Q01DX009 (ip), vehicle: saline with Tween-80): 135 % of control; survivor count (dose: 100.0 mg/kg/injection, schedule: Q01DX009 (ip), vehicle: saline with Tween-80): 6 of 6

Q: For COc1cc(/C=N\NC(=O)c2cccc(Cl)c2)ccc1N(CCCl)CCCl, which T/C (dose: 100.0 mg/kg/injection, schedule: Q04DX003 (ip), vehicle: saline with Tween-80) is on record?
A: Its T/C is 127 % of control.

Q: Cn1ncc2c(N)c(C#N)c(=O)[nH]c21 was tested. Which survivor count (dose: 50.0 mg/kg/injection, schedule: Q01DX001 (ip), vehicle: saline with Tween-80) did it give?
A: The survivor count was 3 of 6.

Q: And the survivor count (dose: 100.0 mg/kg/injection, schedule: Q01DX001 (ip), vehicle: saline with Tween-80)?
A: Its survivor count is 3 of 6.

Q: How did the survivor count [2] turn out when CS/C(C#N)=C(\C#N)SC was run?
A: Its survivor count is 1 of 5.

Q: With C/C=C/C(O)CC1CCCCN1 (configuration not stated) as the compound, how does the survivor count (dose: 200.0 mg/kg/injection, schedule: Q04DX003 (ip), vehicle: saline) read?
A: The survivor count was 0 of 6.

Q: What about the survivor count (dose: 400.0 mg/kg/injection, schedule: Q04DX003 (ip), vehicle: saline) of the same compound?
A: The survivor count was 0 of 6.

Q: CNCCCCc1cc(-c2ccc([N+](=O)[O-])cc2)n[nH]1 was tested. Which T/C (dose: 200.0 mg/kg/injection, schedule: Q04DX003 (ip), vehicle: Klucel (hydroxypropylcellulose) (HPC)) did it give?
A: Its T/C is 126 % of control [5 of 6 alive].

Q: And the survivor count (dose: 400.0 mg/kg/injection, schedule: Q04DX003 (ip), vehicle: Klucel (hydroxypropylcellulose) (HPC))?
A: Its survivor count is 1 of 6.

Q: CC1=NN(c2cc(S(=O)(=O)O)ccc2Cl)C(=O)C1N=Nc1ccccc1 (configuration not stated) was tested. Which survivor count [3] did it give?
A: The survivor count was 3 of 6.

Q: Which results are given for CC[N+]1(C)CCCCC1?
A: survivor count (dose: 100.0 mg/kg/injection, schedule: Q01DX009 (ip), vehicle: saline): 0 of 6; survivor count [3]: 0 of 6

Q: CC(C)C[N+]1(Cc2ccc(Cl)c(Cl)c2)CCOCC1 was tested. Which survivor count (dose: 400.0 mg/kg/injection, schedule: Q04DX002 (ip), vehicle: saline with Tween-80) did it give?
A: The survivor count was 0 of 6.

Q: How did the survivor count [2] turn out when Cc1nc2ccccc2n(CC2CCCN3CCCC[C@H]23)c1=O (some centres not stated) was run?
A: Its survivor count is 0 of 6.

— PubChem BioAssay AID330 (DTP/NCI, 2004)
